According to article PMC9355226:
No constants are given. Whether binding was seen depends on the method and setting. For some assays here: Sequences can lack the tags named with a protein.

B1: NBR1, Q14596 1-966 (protein)
chain: MEPQVTLNVTFKNEIQSFLVSDPENTTWADIEAMVKVSFDLNTIQIKYLDEENEEVSINSQGEYEEALKMAVKQGNQLQMQVHEGHHVVDEAPPPVVGAKRLAARAGKKPLAHYSSLVRVLGSDMKTPEDPAVQSFPLVPCDTDQPQDKPPDWFTSYLETFREQVVNETVEKLEQKLHEKLVLQNPSLGSCPSEVSMPTSEETLFLPENQFSWHIACNNCQRRIVGVRYQCSLCPSYNICEDCEAGPYGHDTNHVLLKLRRPVVGSSEPFCHSKYSTPRLPAALEQVRLQKQVDKNFLKAEKQRLRAEKKQRKAEVKELKKQLKLHRKIHLWNSIHGLQSPKSPLGRPESLLQSNTLMLPLQPCTSVMPMLSAAFVDENLPDGTHLQPGTKFIKHWRMKNTGNVKWSADTKLKFMWGNLTLASTEKKDVLVPCLKAGHVGVVSVEFIAPALEGTYTSHWRLSHKGQQFGPRVWCSIIVDPFPSEESPDNIEKGMISSSKTDDLTCQQEETFLLAKEERQLGEVTEQTEGTAACIPQKAKNVASERELYIPSVDLLTAQDLLSFELLDINIVQELERVPHNTPVDVTPCMSPLPHDSPLIEKPGLGQIEEENEGAGFKALPDSMVSVKRKAENIASVEEAEEDLSGTQFVCETVIRSLTLDAAPDHNPPCRQKSLQMTFALPEGPLGNEKEEIIHIAEEEAVMEEEEDEEDEEEEDELKDEVQSQSSASSEDYIIILPECFDTSRPLGDSMYSSALSQPGLERGAEGKPGVEAGQEPAEAGERLPGGENQPQEHSISDILTTSQTLETVPLIPEVVELPPSLPRSSPCVHHHGSPGVDLPVTIPEVSSVPDQIRGEPRGSSGLVNSRQKSYDHSRHHHGSSIAGGLVKGALSVAASAYKALFAGPPVTAQPIISEDQTAALMAHLFEMGFCDRQLNLRLLKKHNYNILQVVTELLQLNNNDWYSQRY
B2: NDP52 (protein, UniProt Q13137 1-446)
chain: MEETIKDPPTSAVLLDHCHFSQVIFNSVEKFYIPGGDVTCHYTFTQHFIPRRKDWIGIFRVGWKTTREYYTFMWVTLPIDLNNKSAKQQEVQFKAYYLPKDDEYYQFCYVDEDGVVRGASIPFQFRPENEEDILVVTTQGEVEEIEQHNKELCKENQELKDSCISLQKQNSDMQAELQKKQEELETLQSINKKLELKVKEQKDYWETELLQLKEQNQKMSSENEKMGIRVDQLQAQLSTQEKEMEKLVQGDQDKTEQLEQLKKENDHLFLSLTEQRKDQKKLEQTVEQMKQNETTAMKKQQELMDENFDLSKRLSENEIICNALQRQKERLEGENDLLKRENSRLLSYMGLDFNSLPYQVPTSDEGGARQNPGLAYGNPYSGIQESSSPSPLSIKKCPICKADDICDHTLEQQQMQPLCFNCPICDKIFPATEKQIFEDHVFCHSL

Legend:
[1] = molecular target: CFP-TRIM32 (human), Q13049; experiment: sorting of fluorescent cytoplasmic bodies with a cell sorter, then LC-MS/MS; HEK293 cells transfected with CFP-TRIM32, lysed in buffer with 1% Triton X-100 and 150 mM NaCl, sonicated; particles sorted by CFP, FSC and BSC gates (larger than 1.5 um); 10,000 particles solubilised, digested with trypsin, LC-MS/MS; control: naive HEK293 cells; hits with ratio >2 over the control; details: remark: other sources report otherwise
CFP-TRIM32 (human) = CFP-TRIM32 (human) (UniProt Q13049); experiment: as above

| binding [1] | binding (CFP-TRIM32 (human)) | Binder |
| --- | --- | --- |
| no binding |  | B1 |
|  | no binding | B2 |
